Source: the supplement of paper PMC11546906
Structures can show the parent of a compound that is named as a salt. Some of the results follow. Single values are uncertain here, since repeats match poorly.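 FDA-approved drugs were each paired with colistin at one-eighth its MIC and screened against a multidrug-resistant, mcr-1-positive clinical E. coli isolate, with OD600 read after 24 h. Drug-free bacteria served as growth control, plain broth as blank. Combinations were active if OD600 dropped below 0.2.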

Test system: Escherichia coli 42 (mcr-1-positive clinical isolate)
Test: OD600 after 24 h growth with compound plus colistin (absorbance units (OD600)); higher = more bacterial growth (less inhibition)
Details: first compound 25 µM; colistin concentration 0.5 ug/mL; incubation time 24 h; 37 °C

OD600, inactive:
CC(C)(C)NCC(O)COc1cccc2c1CC(O)C(O)C2 (stereo not given) [Nadolol] + CCC(C)CCCC(=O)N[C@@H](CCN)C(=O)N[C@H](C(=O)N[C@@H](CCN)C(=O)N[C@H]1CCNC(=O)[C@H]([C@@H](C)O)NC(=O)[C@H](CCN)NC(=O)[C@H](CCN)NC(=O)[C@H](CC(C)C)NC(=O)[C@@H](CC(C)C)NC(=O)[C@H](CCN)NC1=O)[C@@H](C)O [colistin] 0.84
NC12CC3CC(CC(C3)C1)C2 [Amantadine hydrochloride] + CCC(C)CCCC(=O)N[C@@H](CCN)C(=O)N[C@H](C(=O)N[C@@H](CCN)C(=O)N[C@H]1CCNC(=O)[C@H]([C@@H](C)O)NC(=O)[C@H](CCN)NC(=O)[C@H](CCN)NC(=O)[C@H](CC(C)C)NC(=O)[C@@H](CC(C)C)NC(=O)[C@H](CCN)NC1=O)[C@@H](C)O [colistin] 0.742
CC(C)(O)CNc1nc(Nc2ccnc(C(F)(F)F)c2)nc(-c2cccc(C(F)(F)F)n2)n1 [Enasidenib] + CCC(C)CCCC(=O)N[C@@H](CCN)C(=O)N[C@H](C(=O)N[C@@H](CCN)C(=O)N[C@H]1CCNC(=O)[C@H]([C@@H](C)O)NC(=O)[C@H](CCN)NC(=O)[C@H](CCN)NC(=O)[C@H](CC(C)C)NC(=O)[C@@H](CC(C)C)NC(=O)[C@H](CCN)NC1=O)[C@@H](C)O [colistin] 1.01
CC1(C)NC(=O)N(c2ccc([N+](=O)[O-])c(C(F)(F)F)c2)C1=O [Nilutamide] + CCC(C)CCCC(=O)N[C@@H](CCN)C(=O)N[C@H](C(=O)N[C@@H](CCN)C(=O)N[C@H]1CCNC(=O)[C@H]([C@@H](C)O)NC(=O)[C@H](CCN)NC(=O)[C@H](CCN)NC(=O)[C@H](CC(C)C)NC(=O)[C@@H](CC(C)C)NC(=O)[C@H](CCN)NC1=O)[C@@H](C)O [colistin] 1.11
Cn1cnc2c(F)c(Nc3ccc(Br)cc3Cl)c(C(=O)NOCCO)cc21 [Selumetinib] + CCC(C)CCCC(=O)N[C@@H](CCN)C(=O)N[C@H](C(=O)N[C@@H](CCN)C(=O)N[C@H]1CCNC(=O)[C@H]([C@@H](C)O)NC(=O)[C@H](CCN)NC(=O)[C@H](CCN)NC(=O)[C@H](CC(C)C)NC(=O)[C@@H](CC(C)C)NC(=O)[C@H](CCN)NC1=O)[C@@H](C)O [colistin] 0.782
CCCCC[C@H](O)/C=C/[C@H]1[C@H](O)CC(=O)[C@@H]1CCCCCCC(=O)O [Prostaglandin E1] + CCC(C)CCCC(=O)N[C@@H](CCN)C(=O)N[C@H](C(=O)N[C@@H](CCN)C(=O)N[C@H]1CCNC(=O)[C@H]([C@@H](C)O)NC(=O)[C@H](CCN)NC(=O)[C@H](CCN)NC(=O)[C@H](CC(C)C)NC(=O)[C@@H](CC(C)C)NC(=O)[C@H](CCN)NC1=O)[C@@H](C)O [colistin] 0.853
CC[C@]1(O)C[C@H]2CN(CCc3c([nH]c4ccccc34)[C@@](C(=O)OC)(c3cc4c(cc3OC)N(C=O)[C@H]3[C@@](O)(C(=O)OC)[C@H](OC(C)=O)[C@]5(CC)C=CCN6CC[C@]43[C@@H]65)C2)C1 [Vincristine sulfate] + CCC(C)CCCC(=O)N[C@@H](CCN)C(=O)N[C@H](C(=O)N[C@@H](CCN)C(=O)N[C@H]1CCNC(=O)[C@H]([C@@H](C)O)NC(=O)[C@H](CCN)NC(=O)[C@H](CCN)NC(=O)[C@H](CC(C)C)NC(=O)[C@@H](CC(C)C)NC(=O)[C@H](CCN)NC1=O)[C@@H](C)O [colistin] 1.04
CC(=O)Nc1cccc(-n2c(=O)n(C3CC3)c(=O)c3c(Nc4ccc(I)cc4F)n(C)c(=O)c(C)c32)c1 [Trametinib] + CCC(C)CCCC(=O)N[C@@H](CCN)C(=O)N[C@H](C(=O)N[C@@H](CCN)C(=O)N[C@H]1CCNC(=O)[C@H]([C@@H](C)O)NC(=O)[C@H](CCN)NC(=O)[C@H](CCN)NC(=O)[C@H](CC(C)C)NC(=O)[C@@H](CC(C)C)NC(=O)[C@H](CCN)NC1=O)[C@@H](C)O [colistin] 1.01
NC(=O)NO [Hydroxyurea] + CCC(C)CCCC(=O)N[C@@H](CCN)C(=O)N[C@H](C(=O)N[C@@H](CCN)C(=O)N[C@H]1CCNC(=O)[C@H]([C@@H](C)O)NC(=O)[C@H](CCN)NC(=O)[C@H](CCN)NC(=O)[C@H](CC(C)C)NC(=O)[C@@H](CC(C)C)NC(=O)[C@H](CCN)NC1=O)[C@@H](C)O [colistin] 1.03
Nc1nc(=S)c2[nH]cnc2[nH]1 [6-Thioguanine] + CCC(C)CCCC(=O)N[C@@H](CCN)C(=O)N[C@H](C(=O)N[C@@H](CCN)C(=O)N[C@H]1CCNC(=O)[C@H]([C@@H](C)O)NC(=O)[C@H](CCN)NC(=O)[C@H](CCN)NC(=O)[C@H](CC(C)C)NC(=O)[C@@H](CC(C)C)NC(=O)[C@H](CCN)NC1=O)[C@@H](C)O [colistin] 0.936
CC(C)c1ccc2oc3nc(N)c(C(=O)O)cc3c(=O)c2c1 [Amlexanox] + CCC(C)CCCC(=O)N[C@@H](CCN)C(=O)N[C@H](C(=O)N[C@@H](CCN)C(=O)N[C@H]1CCNC(=O)[C@H]([C@@H](C)O)NC(=O)[C@H](CCN)NC(=O)[C@H](CCN)NC(=O)[C@H](CC(C)C)NC(=O)[C@@H](CC(C)C)NC(=O)[C@H](CCN)NC1=O)[C@@H](C)O [colistin] 0.93
CN1CCN(C2=Nc3cc(Cl)ccc3Nc3ccccc32)CC1 [Clozapine] + CCC(C)CCCC(=O)N[C@@H](CCN)C(=O)N[C@H](C(=O)N[C@@H](CCN)C(=O)N[C@H]1CCNC(=O)[C@H]([C@@H](C)O)NC(=O)[C@H](CCN)NC(=O)[C@H](CCN)NC(=O)[C@H](CC(C)C)NC(=O)[C@@H](CC(C)C)NC(=O)[C@H](CCN)NC1=O)[C@@H](C)O [colistin] 1.07
Nc1cccc2c1C(=O)N(C1CCC(=O)NC1=O)C2=O (stereo not given) [Pomalidomide] + CCC(C)CCCC(=O)N[C@@H](CCN)C(=O)N[C@H](C(=O)N[C@@H](CCN)C(=O)N[C@H]1CCNC(=O)[C@H]([C@@H](C)O)NC(=O)[C@H](CCN)NC(=O)[C@H](CCN)NC(=O)[C@H](CC(C)C)NC(=O)[C@@H](CC(C)C)NC(=O)[C@H](CCN)NC1=O)[C@@H](C)O [colistin] 1.07
O=C(O)c1cc(=O)c2c(OCC(O)COc3cccc4oc(C(=O)O)cc(=O)c34)cccc2o1 [Cromolyn sodium] + CCC(C)CCCC(=O)N[C@@H](CCN)C(=O)N[C@H](C(=O)N[C@@H](CCN)C(=O)N[C@H]1CCNC(=O)[C@H]([C@@H](C)O)NC(=O)[C@H](CCN)NC(=O)[C@H](CCN)NC(=O)[C@H](CC(C)C)NC(=O)[C@@H](CC(C)C)NC(=O)[C@H](CCN)NC1=O)[C@@H](C)O [colistin] 1.11
O=C(OCc1ccccc1)c1ccccc1 [Benzyl benzoate] + CCC(C)CCCC(=O)N[C@@H](CCN)C(=O)N[C@H](C(=O)N[C@@H](CCN)C(=O)N[C@H]1CCNC(=O)[C@H]([C@@H](C)O)NC(=O)[C@H](CCN)NC(=O)[C@H](CCN)NC(=O)[C@H](CC(C)C)NC(=O)[C@@H](CC(C)C)NC(=O)[C@H](CCN)NC1=O)[C@@H](C)O [colistin] 1.02
COC(=O)/C=C/C(=O)OC [Dimethyl fumarate] + CCC(C)CCCC(=O)N[C@@H](CCN)C(=O)N[C@H](C(=O)N[C@@H](CCN)C(=O)N[C@H]1CCNC(=O)[C@H]([C@@H](C)O)NC(=O)[C@H](CCN)NC(=O)[C@H](CCN)NC(=O)[C@H](CC(C)C)NC(=O)[C@@H](CC(C)C)NC(=O)[C@H](CCN)NC1=O)[C@@H](C)O [colistin] 1.01
COC(=O)[C@H](c1ccccc1Cl)N1CCc2sccc2C1 (racemic) [(±) Clopidogrel hydrogen sulfate] + CCC(C)CCCC(=O)N[C@@H](CCN)C(=O)N[C@H](C(=O)N[C@@H](CCN)C(=O)N[C@H]1CCNC(=O)[C@H]([C@@H](C)O)NC(=O)[C@H](CCN)NC(=O)[C@H](CCN)NC(=O)[C@H](CC(C)C)NC(=O)[C@@H](CC(C)C)NC(=O)[C@H](CCN)NC1=O)[C@@H](C)O [colistin] 1.11
COc1c(C)c2c(c(O)c1C/C=C(\C)CCC(=O)O)C(=O)OC2 [Mycophenolic acid] + CCC(C)CCCC(=O)N[C@@H](CCN)C(=O)N[C@H](C(=O)N[C@@H](CCN)C(=O)N[C@H]1CCNC(=O)[C@H]([C@@H](C)O)NC(=O)[C@H](CCN)NC(=O)[C@H](CCN)NC(=O)[C@H](CC(C)C)NC(=O)[C@@H](CC(C)C)NC(=O)[C@H](CCN)NC1=O)[C@@H](C)O [colistin] 1.08
Cc1cc(C2CCCCC2)n(O)c(=O)c1 [Ciclopirox olamine] + CCC(C)CCCC(=O)N[C@@H](CCN)C(=O)N[C@H](C(=O)N[C@@H](CCN)C(=O)N[C@H]1CCNC(=O)[C@H]([C@@H](C)O)NC(=O)[C@H](CCN)NC(=O)[C@H](CCN)NC(=O)[C@H](CC(C)C)NC(=O)[C@@H](CC(C)C)NC(=O)[C@H](CCN)NC1=O)[C@@H](C)O [colistin] 0.963
COc1cc2c(cc1OC)CC(=O)N(CCCN(C)C[C@H]1Cc3cc(OC)c(OC)cc31)CC2 [Ivabradine hydrochloride] + CCC(C)CCCC(=O)N[C@@H](CCN)C(=O)N[C@H](C(=O)N[C@@H](CCN)C(=O)N[C@H]1CCNC(=O)[C@H]([C@@H](C)O)NC(=O)[C@H](CCN)NC(=O)[C@H](CCN)NC(=O)[C@H](CC(C)C)NC(=O)[C@@H](CC(C)C)NC(=O)[C@H](CCN)NC1=O)[C@@H](C)O [colistin] 0.957

Reprinted at random: 2 records from the list.
OD600, inactive:
O=C(O)c1cc(=O)c2c(OCC(O)COc3cccc4oc(C(=O)O)cc(=O)c34)cccc2o1 [Cromolyn sodium] + CCC(C)CCCC(=O)N[C@@H](CCN)C(=O)N[C@H](C(=O)N[C@@H](CCN)C(=O)N[C@H]1CCNC(=O)[C@H]([C@@H](C)O)NC(=O)[C@H](CCN)NC(=O)[C@H](CCN)NC(=O)[C@H](CC(C)C)NC(=O)[C@@H](CC(C)C)NC(=O)[C@H](CCN)NC1=O)[C@@H](C)O [colistin] 1.11
O=C(OCc1ccccc1)c1ccccc1 [Benzyl benzoate] + CCC(C)CCCC(=O)N[C@@H](CCN)C(=O)N[C@H](C(=O)N[C@@H](CCN)C(=O)N[C@H]1CCNC(=O)[C@H]([C@@H](C)O)NC(=O)[C@H](CCN)NC(=O)[C@H](CCN)NC(=O)[C@H](CC(C)C)NC(=O)[C@@H](CC(C)C)NC(=O)[C@H](CCN)NC1=O)[C@@H](C)O [colistin] 1.02
